Reference: the supplement of paper PMC10849652
The list shows a part of the results.

The chains behind the UniProt entries cited, without tags or fusion partners. Where a name states a change or a piece, a line headed by the entry shows the natural chain unless it says otherwise.
UniProt Q5SZK8: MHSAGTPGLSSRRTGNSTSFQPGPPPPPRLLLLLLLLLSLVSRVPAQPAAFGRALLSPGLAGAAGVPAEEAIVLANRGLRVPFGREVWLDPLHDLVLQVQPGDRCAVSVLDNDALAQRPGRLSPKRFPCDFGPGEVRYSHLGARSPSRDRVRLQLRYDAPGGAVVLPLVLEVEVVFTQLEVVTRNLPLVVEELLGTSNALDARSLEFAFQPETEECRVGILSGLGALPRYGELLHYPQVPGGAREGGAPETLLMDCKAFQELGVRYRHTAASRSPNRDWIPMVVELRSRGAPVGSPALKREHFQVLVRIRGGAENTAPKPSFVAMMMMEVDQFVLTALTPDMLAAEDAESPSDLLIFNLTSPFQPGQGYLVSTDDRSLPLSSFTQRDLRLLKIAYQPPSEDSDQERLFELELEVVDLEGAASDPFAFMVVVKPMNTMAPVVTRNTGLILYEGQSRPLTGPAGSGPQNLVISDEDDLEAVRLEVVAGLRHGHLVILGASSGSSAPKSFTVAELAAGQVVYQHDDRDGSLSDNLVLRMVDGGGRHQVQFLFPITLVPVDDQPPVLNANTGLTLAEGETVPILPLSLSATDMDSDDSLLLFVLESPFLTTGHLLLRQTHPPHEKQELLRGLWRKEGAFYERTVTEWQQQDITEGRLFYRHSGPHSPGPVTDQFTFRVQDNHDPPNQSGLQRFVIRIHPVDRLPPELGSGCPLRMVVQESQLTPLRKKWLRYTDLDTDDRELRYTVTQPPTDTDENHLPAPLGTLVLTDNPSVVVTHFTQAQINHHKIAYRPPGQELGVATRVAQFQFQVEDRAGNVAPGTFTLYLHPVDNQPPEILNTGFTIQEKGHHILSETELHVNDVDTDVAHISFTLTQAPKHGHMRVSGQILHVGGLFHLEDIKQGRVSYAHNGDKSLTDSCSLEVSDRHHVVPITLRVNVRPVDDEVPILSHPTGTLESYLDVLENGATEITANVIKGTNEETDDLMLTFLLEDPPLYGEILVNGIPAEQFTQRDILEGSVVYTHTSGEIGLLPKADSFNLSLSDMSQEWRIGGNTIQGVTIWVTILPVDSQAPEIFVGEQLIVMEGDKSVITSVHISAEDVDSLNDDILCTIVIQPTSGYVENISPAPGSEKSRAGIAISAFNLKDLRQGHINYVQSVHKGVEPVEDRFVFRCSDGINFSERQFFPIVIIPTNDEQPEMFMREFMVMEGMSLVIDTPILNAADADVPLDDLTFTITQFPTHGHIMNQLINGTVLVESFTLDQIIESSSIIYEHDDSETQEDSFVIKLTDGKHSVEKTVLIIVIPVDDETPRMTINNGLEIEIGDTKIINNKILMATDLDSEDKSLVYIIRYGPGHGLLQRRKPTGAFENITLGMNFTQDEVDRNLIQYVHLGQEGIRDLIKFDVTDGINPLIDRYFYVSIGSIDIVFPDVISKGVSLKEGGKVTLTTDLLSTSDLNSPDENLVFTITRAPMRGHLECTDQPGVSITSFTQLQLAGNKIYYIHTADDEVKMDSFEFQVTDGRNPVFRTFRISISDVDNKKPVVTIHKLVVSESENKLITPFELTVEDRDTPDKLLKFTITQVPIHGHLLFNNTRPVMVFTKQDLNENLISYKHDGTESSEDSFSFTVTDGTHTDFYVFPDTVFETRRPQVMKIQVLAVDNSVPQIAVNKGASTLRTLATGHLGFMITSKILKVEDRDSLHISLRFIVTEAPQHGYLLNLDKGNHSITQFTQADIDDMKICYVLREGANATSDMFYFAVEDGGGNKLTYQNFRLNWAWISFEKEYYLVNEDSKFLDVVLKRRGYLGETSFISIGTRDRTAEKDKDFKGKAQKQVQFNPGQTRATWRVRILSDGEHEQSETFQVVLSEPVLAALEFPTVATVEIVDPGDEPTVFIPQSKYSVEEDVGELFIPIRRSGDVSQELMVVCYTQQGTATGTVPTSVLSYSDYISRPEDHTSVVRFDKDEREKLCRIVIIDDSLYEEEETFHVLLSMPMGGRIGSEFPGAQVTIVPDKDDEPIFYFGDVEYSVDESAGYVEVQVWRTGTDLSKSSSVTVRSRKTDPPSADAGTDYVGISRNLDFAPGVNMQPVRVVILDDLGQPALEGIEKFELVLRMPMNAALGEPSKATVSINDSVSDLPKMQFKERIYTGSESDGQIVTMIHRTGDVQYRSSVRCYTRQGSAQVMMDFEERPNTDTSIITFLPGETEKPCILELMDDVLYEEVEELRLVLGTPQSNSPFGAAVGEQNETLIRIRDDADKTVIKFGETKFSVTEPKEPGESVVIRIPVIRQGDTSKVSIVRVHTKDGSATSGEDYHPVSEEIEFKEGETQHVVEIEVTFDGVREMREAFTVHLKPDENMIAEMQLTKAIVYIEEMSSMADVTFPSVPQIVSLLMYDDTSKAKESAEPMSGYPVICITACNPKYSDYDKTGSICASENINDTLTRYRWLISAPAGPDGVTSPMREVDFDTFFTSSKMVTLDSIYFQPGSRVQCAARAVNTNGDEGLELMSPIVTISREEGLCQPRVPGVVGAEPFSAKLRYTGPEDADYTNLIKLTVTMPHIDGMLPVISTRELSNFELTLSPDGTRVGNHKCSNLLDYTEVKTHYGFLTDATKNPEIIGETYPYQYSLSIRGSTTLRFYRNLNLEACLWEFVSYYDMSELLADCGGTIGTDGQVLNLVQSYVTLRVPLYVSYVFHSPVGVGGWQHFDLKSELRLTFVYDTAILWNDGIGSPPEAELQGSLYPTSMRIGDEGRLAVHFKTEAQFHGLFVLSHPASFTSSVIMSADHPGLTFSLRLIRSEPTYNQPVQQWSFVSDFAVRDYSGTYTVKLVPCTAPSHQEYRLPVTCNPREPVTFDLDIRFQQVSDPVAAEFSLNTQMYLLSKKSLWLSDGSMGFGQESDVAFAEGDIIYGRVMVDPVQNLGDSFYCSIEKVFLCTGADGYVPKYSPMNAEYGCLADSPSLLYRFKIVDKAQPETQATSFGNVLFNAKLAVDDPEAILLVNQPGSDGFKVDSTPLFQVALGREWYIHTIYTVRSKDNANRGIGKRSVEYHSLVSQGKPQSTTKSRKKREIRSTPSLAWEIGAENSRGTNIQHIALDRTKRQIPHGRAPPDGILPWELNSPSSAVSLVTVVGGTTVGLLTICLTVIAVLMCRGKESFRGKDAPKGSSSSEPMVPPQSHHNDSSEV
UniProt Q8IVP5: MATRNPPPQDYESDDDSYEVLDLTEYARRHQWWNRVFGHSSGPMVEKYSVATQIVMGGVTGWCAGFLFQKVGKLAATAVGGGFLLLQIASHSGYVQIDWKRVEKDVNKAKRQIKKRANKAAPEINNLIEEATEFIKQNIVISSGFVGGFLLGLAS
UniProt Q14697: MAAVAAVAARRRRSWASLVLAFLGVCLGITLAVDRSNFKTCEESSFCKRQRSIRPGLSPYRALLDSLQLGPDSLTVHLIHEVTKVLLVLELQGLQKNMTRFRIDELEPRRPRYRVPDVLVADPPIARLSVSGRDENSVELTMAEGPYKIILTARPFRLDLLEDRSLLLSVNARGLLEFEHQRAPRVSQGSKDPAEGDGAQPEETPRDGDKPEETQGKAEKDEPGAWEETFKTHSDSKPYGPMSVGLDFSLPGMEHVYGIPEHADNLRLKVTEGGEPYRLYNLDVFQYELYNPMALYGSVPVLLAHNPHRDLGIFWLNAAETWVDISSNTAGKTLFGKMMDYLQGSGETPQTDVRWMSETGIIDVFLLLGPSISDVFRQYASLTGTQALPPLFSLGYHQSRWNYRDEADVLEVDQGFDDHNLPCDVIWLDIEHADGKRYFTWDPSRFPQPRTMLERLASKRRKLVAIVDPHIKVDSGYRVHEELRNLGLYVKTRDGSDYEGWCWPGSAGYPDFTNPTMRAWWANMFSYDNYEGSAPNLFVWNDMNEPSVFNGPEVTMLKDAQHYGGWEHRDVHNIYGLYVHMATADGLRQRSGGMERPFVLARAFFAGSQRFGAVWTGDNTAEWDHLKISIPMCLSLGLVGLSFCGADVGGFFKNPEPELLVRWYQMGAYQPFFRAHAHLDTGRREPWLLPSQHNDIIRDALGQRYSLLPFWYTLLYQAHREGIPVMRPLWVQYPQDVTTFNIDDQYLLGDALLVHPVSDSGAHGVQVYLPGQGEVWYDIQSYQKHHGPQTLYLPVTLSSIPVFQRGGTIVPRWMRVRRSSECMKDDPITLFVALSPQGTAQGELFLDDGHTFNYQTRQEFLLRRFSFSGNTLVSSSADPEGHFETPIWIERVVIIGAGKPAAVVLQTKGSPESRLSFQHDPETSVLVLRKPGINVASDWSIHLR
UniProt P30047: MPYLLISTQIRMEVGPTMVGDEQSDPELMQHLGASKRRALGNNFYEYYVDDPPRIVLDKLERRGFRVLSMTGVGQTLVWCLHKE
UniProt P04406: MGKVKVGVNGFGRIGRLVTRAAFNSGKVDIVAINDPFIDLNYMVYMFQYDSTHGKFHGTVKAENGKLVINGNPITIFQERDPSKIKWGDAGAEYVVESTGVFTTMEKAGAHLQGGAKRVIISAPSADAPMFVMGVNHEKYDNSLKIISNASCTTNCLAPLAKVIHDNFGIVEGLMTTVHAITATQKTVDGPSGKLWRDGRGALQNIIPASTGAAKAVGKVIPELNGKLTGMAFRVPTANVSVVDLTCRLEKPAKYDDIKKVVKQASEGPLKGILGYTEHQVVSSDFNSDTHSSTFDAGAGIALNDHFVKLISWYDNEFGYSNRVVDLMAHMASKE
UniProt P34059: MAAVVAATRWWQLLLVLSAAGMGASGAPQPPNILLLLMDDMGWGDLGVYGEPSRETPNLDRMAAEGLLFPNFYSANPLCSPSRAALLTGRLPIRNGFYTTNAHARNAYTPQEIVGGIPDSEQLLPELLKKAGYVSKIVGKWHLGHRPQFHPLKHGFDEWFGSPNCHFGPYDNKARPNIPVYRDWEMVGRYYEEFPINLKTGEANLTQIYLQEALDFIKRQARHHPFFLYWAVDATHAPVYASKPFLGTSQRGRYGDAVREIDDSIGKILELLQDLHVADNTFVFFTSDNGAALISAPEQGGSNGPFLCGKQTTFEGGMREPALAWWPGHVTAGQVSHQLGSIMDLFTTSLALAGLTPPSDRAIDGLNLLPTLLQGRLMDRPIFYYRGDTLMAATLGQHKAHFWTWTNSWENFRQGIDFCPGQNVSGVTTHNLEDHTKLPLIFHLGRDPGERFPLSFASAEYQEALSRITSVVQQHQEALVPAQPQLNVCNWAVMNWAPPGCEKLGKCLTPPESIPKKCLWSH
UniProt O43524: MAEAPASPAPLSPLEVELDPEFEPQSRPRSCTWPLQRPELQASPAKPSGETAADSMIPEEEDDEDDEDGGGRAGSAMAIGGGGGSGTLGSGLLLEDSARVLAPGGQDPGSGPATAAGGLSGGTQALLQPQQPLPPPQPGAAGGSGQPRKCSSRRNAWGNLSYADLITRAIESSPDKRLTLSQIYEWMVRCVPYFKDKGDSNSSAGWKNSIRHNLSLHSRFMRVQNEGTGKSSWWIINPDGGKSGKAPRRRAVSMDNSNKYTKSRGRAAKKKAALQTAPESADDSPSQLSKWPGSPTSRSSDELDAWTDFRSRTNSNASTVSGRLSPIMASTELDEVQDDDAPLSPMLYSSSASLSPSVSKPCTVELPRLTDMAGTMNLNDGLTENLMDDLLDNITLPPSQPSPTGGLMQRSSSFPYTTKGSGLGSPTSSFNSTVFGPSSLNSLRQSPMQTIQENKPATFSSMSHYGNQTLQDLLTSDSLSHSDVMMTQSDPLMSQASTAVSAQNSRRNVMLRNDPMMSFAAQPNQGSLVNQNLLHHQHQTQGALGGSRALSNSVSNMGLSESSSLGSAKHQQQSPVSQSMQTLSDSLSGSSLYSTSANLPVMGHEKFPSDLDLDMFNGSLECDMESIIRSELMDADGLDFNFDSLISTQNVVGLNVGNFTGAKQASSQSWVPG
UniProt P48506: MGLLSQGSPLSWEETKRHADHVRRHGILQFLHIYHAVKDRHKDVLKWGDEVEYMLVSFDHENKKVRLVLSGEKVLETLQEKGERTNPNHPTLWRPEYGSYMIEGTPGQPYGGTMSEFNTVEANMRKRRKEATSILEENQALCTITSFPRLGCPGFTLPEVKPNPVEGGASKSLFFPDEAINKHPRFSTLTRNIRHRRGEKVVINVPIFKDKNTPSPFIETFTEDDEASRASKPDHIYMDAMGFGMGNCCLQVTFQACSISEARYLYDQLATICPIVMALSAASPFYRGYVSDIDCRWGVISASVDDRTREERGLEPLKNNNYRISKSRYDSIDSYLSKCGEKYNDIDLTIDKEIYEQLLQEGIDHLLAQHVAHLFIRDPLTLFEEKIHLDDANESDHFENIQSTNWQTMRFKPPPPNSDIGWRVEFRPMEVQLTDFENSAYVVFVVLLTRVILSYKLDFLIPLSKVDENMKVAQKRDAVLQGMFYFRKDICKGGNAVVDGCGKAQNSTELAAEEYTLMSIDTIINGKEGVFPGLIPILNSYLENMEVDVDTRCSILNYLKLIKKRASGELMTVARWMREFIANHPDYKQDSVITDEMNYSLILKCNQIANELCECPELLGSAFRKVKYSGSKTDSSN

Columns and labels:
Experiment in all cases: log2 fold change, soluble protein after heating vs DMSO (PISA); higher = thermal stabilisation; K562 lysate, 10 uM; active = over 0.2 and 3.5 SD of the protein, either way, in both replicates (recomputed)
alvocidib = compound: CN1CC[C@H](c2c(O)cc(O)c3c(=O)cc(-c4ccccc4Cl)oc23)[C@H](O)C1 [alvocidib]
Procedure, shortened: (§1)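 Pellets of K562 cells were dounce-homogenised in PBS pH 7.4 with 1 mM MgCl2, and the crude extract was held at 1 mg/mL protein for a 30 min treatment with 10 μM compound. Aliquots were heated for 3 min over 48°C-58°C and pooled before NP-40 was added to 0.5% at 4°C. The supernatant from 21,000xg for 90 min was quantified by TMTpro 16plex LC-MS/MS with channel sums equalised. Values are reported from duplicates as log-two fold change in thermal stability relative to solvent controls.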

Tubastatin A = compound: CN1CCc2c(c3ccccc3n2Cc2ccc(C(=O)NO)cc2)C1 [Tubastatin A]
Procedure, shortened: as §1

[1] = compound: CNC(=O)C1=CC=CC=C1NC2=NC(=NC=C2Cl)NC3=C(C=C(C=C3)N4CCOCC4)OC
Procedure, shortened: as §1

defactinib = compound: CNC(=O)c1ccc(Nc2ncc(C(F)(F)F)c(NCc3nccnc3N(C)S(C)(=O)=O)n2)cc1 [defactinib]
Procedure, shortened: as §1

[2] = compound: CNc1nc(-c2ccc3c(N)n[nH]c3c2)cc(N2C[C@@H](C(=O)NC3CCCCC3)CC[C@H]2C)n1
Procedure, shortened: as §1

encorafenib = compound: COC(=O)N[C@@H](C)CNc1nccc(-c2cn(C(C)C)nc2-c2cc(Cl)cc(NS(C)(=O)=O)c2F)n1 [encorafenib]
Procedure, shortened: as §1

[3] = compound: COC(=O)[C@H](CCSC)NC(=O)C1=C(C=C(C=C1)NC[C@H](CS)N)C2=CC=CC=C2
Procedure, shortened: as §1

alisertib = compound: COc1cc(Nc2ncc3c(n2)-c2ccc(Cl)cc2C(c2c(F)cccc2OC)=NC3)ccc1C(=O)O [alisertib]
Procedure, shortened: as §1

[4] = compound: COc1cc2nc(-c3cc(F)ccc3O)nc(N[C@@H]3CNC[C@H]3C(C)(C)O)c2cc1OC
Procedure, shortened: as §1

gefitinib = compound: COc1cc2ncnc(Nc3ccc(F)c(Cl)c3)c2cc1OCCCN1CCOCC1 [gefitinib]
Procedure, shortened: as §1

lapatinib = compound: CS(=O)(=O)CCNCc1ccc(-c2ccc3ncnc(Nc4ccc(OCc5cccc(F)c5)c(Cl)c4)c3c2)o1 [lapatinib]
Procedure, shortened: as §1

pictilisib = compound: CS(=O)(=O)N1CCN(Cc2cc3nc(-c4cccc5[nH]ncc45)nc(N4CCOCC4)c3s2)CC1 [pictilisib]
Procedure, shortened: as §1

crizotinib = compound: C[C@@H](Oc1cc(-c2cnn(C3CCNCC3)c2)cnc1N)c1c(Cl)ccc(F)c1Cl [crizotinib]
Procedure, shortened: as §1

[5] = compound: C[C@H](C1=CC=C(C=C1)C(=O)NC2=C3C=CNC3=NC=C2)N
Procedure, shortened: as §1

duvelisib = compound: C[C@H](Nc1ncnc2nc[nH]c12)c1cc2cccc(Cl)c2c(=O)n1-c1ccccc1 [duvelisib]
Procedure, shortened: as §1

gandotinib = compound: Cc1cc(Nc2cc(CN3CCOCC3)c3nc(C)c(Cc4ccc(Cl)cc4F)n3n2)n[nH]1 [gandotinib]
Procedure, shortened: as §1

tozasertib = compound: Cc1cc(Nc2cc(N3CCN(C)CC3)nc(Sc3ccc(NC(=O)C4CC4)cc3)n2)n[nH]1 [tozasertib]
Procedure, shortened: as §1

doramapimod = compound: Cc1ccc(-n2nc(C(C)(C)C)cc2NC(=O)Nc2ccc(OCCN3CCOCC3)c3ccccc23)cc1 [doramapimod]
Procedure, shortened: as §1

bafetinib = compound: Cc1ccc(NC(=O)c2ccc(CN3CC[C@H](N(C)C)C3)c(C(F)(F)F)c2)cc1Nc1nccc(-c2cncnc2)n1 [bafetinib]
Procedure, shortened: as §1

[6] = compound: Cc1cccc(CC(=O)N2CCc3c2ccc(-c2cn(C)c4ncnc(N)c24)c3F)n1
Procedure, shortened: as §1

Target | log2 fold change (alvocidib) | log2 fold change (Tubastatin A) | log2 fold change [1] | log2 fold change (defactinib) | log2 fold change [2] | log2 fold change (encorafenib) | log2 fold change [3] | log2 fold change (alisertib) | log2 fold change [4] | log2 fold change (gefitinib) | log2 fold change (lapatinib) | log2 fold change (pictilisib) | log2 fold change (crizotinib) | log2 fold change [5] | log2 fold change (duvelisib) | log2 fold change (gandotinib) | log2 fold change (tozasertib) | log2 fold change (doramapimod) | log2 fold change (bafetinib) | log2 fold change [6]
GCFC2 (UniProt P16383) | inactive: 0 | inactive: -0.052 | inactive: 0.076 | inactive: 0.078 | inactive: -0.021 | inactive: 0.008 | inactive: 0.011 | inactive: -0.002 | inactive: -0.004 | inactive: 0.026 | inactive: 0.041 | inactive: 0.051 | inactive: -0.013 | inactive: 0.013 | inactive: 0.025 | inactive: -0.042 | inactive: -0.003 | inactive: -0.042 | inactive: -0.096 | inactive: -0.016
FREM2 (UniProt Q5SZK8) | inactive: -0.114 | inactive: 0.068 | inactive: -0.034 | inactive: -0.005 | inactive: -0.038 | inactive: 0.031 | inactive: -0.022 | inactive: 0.098 | inactive: -0.013 | inactive: 0.164 | inactive: -0.077 | inactive: 0.046 | inactive: -0.095 | active: -0.318 | inactive: 0.06 | inactive: 0.172 | inactive: 0.104 | inactive: 0.07 | inactive: -0.135 | inactive: 0.218
FYCO1 isoform 4 (UniProt Q9BQS8) | inactive: -0.052 | inactive: 0 | inactive: -0.001 | inactive: -0.002 | inactive: -0.006 | inactive: 0.033 | inactive: 0.024 | inactive: 0.018 | inactive: 0.018 | inactive: 0.016 | inactive: -0.005 | inactive: -0.018 | inactive: -0.018 | inactive: -0.114 | inactive: 0.036 | inactive: 0.229 | inactive: 0.021 | inactive: -0.009 | inactive: -0.019 | inactive: 0.176
FXR2 (UniProt P51116) | inactive: 0 | inactive: -0.159 | inactive: -0.083 | inactive: -0.117 | inactive: -0.018 | inactive: 0.06 | inactive: 0.064 | inactive: 0.017 | inactive: 0.013 | inactive: 0.012 | inactive: -0.002 | inactive: -0.055 | inactive: -0.017 | inactive: -0.022 | inactive: -0.016 | inactive: -0.074 | inactive: 0.009 | inactive: 0.037 | inactive: 0.002 | inactive: 0.027
GALNT1 (UniProt Q10472) | inactive: -0.018 | inactive: 0.056 | inactive: -0.067 | inactive: 0.008 | inactive: -0.03 | inactive: 0.012 | inactive: -0.031 | inactive: 0.032 | inactive: -0.014 | inactive: -0.026 | inactive: -0.022 | inactive: -0.029 | inactive: -0.041 | inactive: -0.107 | inactive: -0.025 | inactive: -0.036 | inactive: 0.008 | inactive: 0.026 | inactive: 0.018 | inactive: 0.071
FUNDC1 (UniProt Q8IVP5) | inactive: 0.031 | inactive: 0.078 | inactive: -0.194 | inactive: -0.154 | inactive: -0.2 | inactive: 0.024 | inactive: 0.039 | inactive: -0.439 | inactive: 0.023 | inactive: -0.264 | inactive: 0.074 |  | inactive: 0.05 | inactive: -0.363 | inactive: 0.153 | inactive: 0.148 | inactive: 0.013 | inactive: -0.089 |  | inactive: 0.014
GANAB isoform 2 (UniProt Q14697) | inactive: -0.013 | inactive: 0.003 | inactive: -0.009 | inactive: -0.002 | inactive: 0.004 | inactive: 0.014 | inactive: 0.013 | inactive: -0.004 | inactive: 0.015 | inactive: 0.016 | inactive: -0.007 | inactive: -0.011 | inactive: 0.01 | inactive: -0.005 | inactive: 0.022 | inactive: -0.001 | inactive: -0.017 | inactive: -0.035 | inactive: -0.011 | inactive: 0.008
GCHFR (UniProt P30047) | inactive: -0.047 | inactive: 0.168 | inactive: -0.043 | inactive: -0.025 | inactive: 0.167 | inactive: -0.033 | inactive: 0.021 | inactive: -0.041 | inactive: 0.033 | inactive: 0.027 | inactive: -0.012 | inactive: -0.023 | inactive: -0.095 | inactive: -0.029 | inactive: -0.012 | inactive: 0.112 | inactive: 0.037 | inactive: 0.024 | inactive: 0.03 | inactive: 0.032
FSCN1 (UniProt Q16658) | inactive: 0.026 | inactive: 0.019 | inactive: -0.002 | inactive: 0.001 | inactive: -0.066 | inactive: -0.021 | inactive: -0.053 | inactive: -0.011 | inactive: -0.005 | inactive: -0.005 | inactive: 0.008 | inactive: -0.004 | inactive: 0.043 | inactive: 0.082 | inactive: 0.017 | inactive: -0.044 | inactive: 0.011 | inactive: -0.02 | inactive: 0.061 | inactive: -0.086
GALNT11 (UniProt Q8NCW6) | inactive: -0.076 | inactive: 0.06 | inactive: -0.047 | inactive: 0.094 | inactive: -0.022 | inactive: 0.13 | inactive: -0.018 | inactive: -0.119 | inactive: -0.01 | inactive: 0.013 | inactive: -0.107 |  | inactive: -0.034 | inactive: -0.143 | inactive: 0.093 | inactive: 0.058 | inactive: -0.041 | inactive: 0.026 |  | inactive: 0.132
GAPDH (UniProt P04406) | inactive: 0.01 | inactive: 0.046 | inactive: 0 | inactive: 0.012 | inactive: 0.018 | inactive: -0.045 | inactive: -0.006 | inactive: -0.039 | inactive: -0.001 | inactive: -0.026 | inactive: 0.005 | inactive: -0.024 | inactive: 0.066 | inactive: 0.043 | inactive: 0.003 | inactive: -0.002 | inactive: -0.005 | inactive: -0.031 | inactive: 0.055 | inactive: -0.082
GALNS (UniProt P34059) | inactive: -0.071 | inactive: -0.015 | inactive: 0.01 | inactive: -0.03 | inactive: 0.014 | inactive: 0.008 | inactive: 0.026 | inactive: -0.016 | inactive: 0.047 | inactive: -0.023 | inactive: 0.003 | inactive: -0.003 | inactive: 0.055 | inactive: -0.033 | inactive: -0.014 | inactive: 0.059 | inactive: 0.01 | inactive: -0.024 | inactive: -0.027 | inactive: 0.004
GALK2 (UniProt Q01415) | inactive: -0.002 | inactive: 0.052 | inactive: -0.03 | inactive: -0.028 | inactive: 0.065 | inactive: -0.014 | inactive: -0.039 | inactive: -0.012 | inactive: -0.004 | inactive: -0.015 | inactive: -0.003 | inactive: 0 | inactive: 0.002 | inactive: -0.033 | inactive: 0.049 | inactive: -0.002 | inactive: 0.039 | inactive: -0.004 | inactive: 0.025 | inactive: 0.001
FOXO3 (UniProt O43524) | inactive: -0.099 | inactive: -0.04 | inactive: -0.018 | inactive: -0.062 | inactive: -0.002 | inactive: -0.058 | inactive: -0.121 | inactive: -0.024 | inactive: 0.009 | inactive: -0.414 | inactive: -0.005 | inactive: -0.002 | inactive: -0.029 | inactive: -0.01 | inactive: 0.01 | inactive: 0.054 | inactive: 0.007 | inactive: 0.01 | inactive: -0.081 | inactive: 0.054
GCLC (UniProt P48506) | inactive: -0.06 | inactive: 0.019 | inactive: -0.012 | inactive: 0.006 | inactive: 0.005 | inactive: -0.012 | inactive: 0.109 | inactive: -0.005 | inactive: 0.011 | inactive: 0.026 | inactive: -0.035 | inactive: -0.033 | inactive: 0.022 | inactive: -0.036 | inactive: 0.012 | inactive: 0.013 | inactive: 0.01 | inactive: 0.003 | inactive: -0.036 | inactive: 0.021
GDI1 (UniProt P31150) | inactive: -0.013 | inactive: 0.014 | inactive: -0.034 | inactive: 0.004 | inactive: -0.021 | inactive: -0.017 | inactive: 0.002 | inactive: 0.005 | inactive: 0.006 | inactive: 0.001 | inactive: 0.001 | inactive: -0.016 | inactive: 0.016 | inactive: 0.076 | inactive: 0.005 | inactive: -0.05 | inactive: -0.01 | inactive: 0.004 | inactive: 0.011 | inactive: -0.027

Some of the entries so far, with tabs:
Target	log2 fold change (alvocidib)	log2 fold change (Tubastatin A)	log2 fold change [1]	log2 fold change (defactinib)	log2 fold change [2]	log2 fold change (encorafenib)	log2 fold change [3]	log2 fold change (alisertib)	log2 fold change [4]	log2 fold change (gefitinib)	log2 fold change (lapatinib)	log2 fold change (pictilisib)	log2 fold change (crizotinib)	log2 fold change [5]	log2 fold change (duvelisib)	log2 fold change (gandotinib)	log2 fold change (tozasertib)	log2 fold change (doramapimod)	log2 fold change (bafetinib)	log2 fold change [6]
FUNDC1 (UniProt Q8IVP5)	inactive: 0.031	inactive: 0.078	inactive: -0.194	inactive: -0.154	inactive: -0.2	inactive: 0.024	inactive: 0.039	inactive: -0.439	inactive: 0.023	inactive: -0.264	inactive: 0.074		inactive: 0.05	inactive: -0.363	inactive: 0.153	inactive: 0.148	inactive: 0.013	inactive: -0.089		inactive: 0.014
GDI1 (UniProt P31150)	inactive: -0.013	inactive: 0.014	inactive: -0.034	inactive: 0.004	inactive: -0.021	inactive: -0.017	inactive: 0.002	inactive: 0.005	inactive: 0.006	inactive: 0.001	inactive: 0.001	inactive: -0.016	inactive: 0.016	inactive: 0.076	inactive: 0.005	inactive: -0.05	inactive: -0.01	inactive: 0.004	inactive: 0.011	inactive: -0.027
